Experiment: AOA-2 pharmacokinetics in serum
Conditions: mouse, in vivo, ip, 10 mg/kg

N=C(N)NCCC[C@@H]1NC(=O)[C@H]2CCCN2C(=O)[C@H](Cc2c[nH]c3ccccc23)NC(=O)[C@H](CCCNC(=N)N)NC(=O)[C@H]2CCCN2C(=O)[C@H](Cc2c[nH]c3ccccc23)NC1=O [AOA-2]
Cmax: 12600 ng/mL

From publication PMC5666006, “Combating virulence of Gram-negative bacilli by OmpA inhibition” (Scientific Reports, 2017)
